Reference: publication PMC2865516
No constants are given. Whether binding was seen depends on the method and setting. Binding seen in cells or lysates may run through a third protein. Some entries that bind do so weakly or less than the wild type.

Sequences of proteins named here, by UniProt entry; tags and fusion partners are left off.
UniProt P00546: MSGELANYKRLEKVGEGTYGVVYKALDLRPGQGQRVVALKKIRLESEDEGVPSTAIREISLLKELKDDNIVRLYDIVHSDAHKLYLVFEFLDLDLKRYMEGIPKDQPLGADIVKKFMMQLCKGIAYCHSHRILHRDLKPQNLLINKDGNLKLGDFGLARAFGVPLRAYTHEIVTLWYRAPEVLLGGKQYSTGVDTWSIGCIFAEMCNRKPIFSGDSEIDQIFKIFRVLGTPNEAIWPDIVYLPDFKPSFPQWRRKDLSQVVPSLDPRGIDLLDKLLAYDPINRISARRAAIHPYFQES

Target: T1, Clb2-TAP (S. cerevisiae) (UniProt P24869)
T1 sequence: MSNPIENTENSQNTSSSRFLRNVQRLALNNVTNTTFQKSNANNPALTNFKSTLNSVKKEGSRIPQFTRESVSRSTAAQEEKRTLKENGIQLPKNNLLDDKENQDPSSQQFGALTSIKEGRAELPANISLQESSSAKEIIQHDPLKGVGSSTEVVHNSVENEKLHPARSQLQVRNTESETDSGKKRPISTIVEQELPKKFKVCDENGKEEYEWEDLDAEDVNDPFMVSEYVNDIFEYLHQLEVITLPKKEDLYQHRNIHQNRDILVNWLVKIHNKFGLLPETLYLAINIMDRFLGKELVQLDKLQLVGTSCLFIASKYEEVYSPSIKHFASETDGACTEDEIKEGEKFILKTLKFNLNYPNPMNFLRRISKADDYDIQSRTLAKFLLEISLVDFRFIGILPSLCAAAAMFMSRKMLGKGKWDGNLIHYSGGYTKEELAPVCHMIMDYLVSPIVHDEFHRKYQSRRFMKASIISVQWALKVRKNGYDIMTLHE
Assay: pull-down; Clb2-TAP captured from yeast lysate (modified RIPA buffer) on IgG-Sepharose beads, released by overnight AcTEV cleavage at 4°C (abbreviated TAP protocol); Cdc28 in the eluate quantified by western blot with anti-PSTAIR against a GST-Cdk1 standard

binding: binds
Substance: Cdc28 (from UniProt P00546 1-298) (enzyme)
